Results: PMC10613150
Results are given in words; binding and its absence hold for the method and conditions named. Binding seen in cells or lysates may run through a third protein. Some entries that bind do so weakly or less than the wild type. For part of these data: Sequences can lack the tags named with a protein.

Sequences of proteins named here, by UniProt entry; tags and fusion partners are left off.
UniProt P03165: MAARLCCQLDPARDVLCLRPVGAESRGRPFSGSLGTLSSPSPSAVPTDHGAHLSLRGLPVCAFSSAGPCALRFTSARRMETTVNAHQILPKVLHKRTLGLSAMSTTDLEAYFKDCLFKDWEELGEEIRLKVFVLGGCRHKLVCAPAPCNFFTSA
UniProt P03146: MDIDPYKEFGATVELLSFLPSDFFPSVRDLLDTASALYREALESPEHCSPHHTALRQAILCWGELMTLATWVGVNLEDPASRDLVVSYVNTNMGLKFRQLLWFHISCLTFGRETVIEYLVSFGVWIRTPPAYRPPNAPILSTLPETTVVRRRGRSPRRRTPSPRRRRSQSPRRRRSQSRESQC

Assays:
[1] = molecular target: hepatitis B x protein with Flag tag (hepatitis B virus) (UniProt P03165); experiment: co-IP; HEK293T co-transfected with Myc-OTUD5 and a Flag-tagged HBV protein; lysed 48 h after transfection in 50 mM Tris-HCl pH 8.0, 150 mM NaCl, 1% NP-40; lysates incubated overnight with anti-FLAG M2 magnetic beads (Fig. 4B-D) or anti-Myc magnetic beads (Fig. 4E-G)
[2] = molecular target: hepatitis B core protein with Flag tag (hepatitis B virus) (UniProt P03146); experiment: as above
[3] = molecular target: endogenous HBV core (hepatitis B virus (produced in HepG2.2.15)) (UniProt P03146); experiment: co-IP; HepG2.2.15 cells treated with MG132 for 8 h; lysates IP with anti-HBc, IB with anti-OTUD5; endogenous proteins

B1: OTUD5 with Myc tag (enzyme, UniProt Q96G74 1-571)
chain: MTILPKKKPPPPDADPANEPPPPGPMPPAPRRGGGVGVGGGGTGVGGGDRDRDSGVVGARPRASPPPQGPLPGPPGALHRWALAVPPGAVAGPRPQQASPPPCGGPGGPGGGPGDALGAAAAGVGAAGVVVGVGGAVGVGGCCSGPGHSKRRRQAPGVGAVGGGSPEREEVGAGYNSEDEYEAAAARIEAMDPATVEQQEHWFEKALRDKKGFIIKQMKEDGACLFRAVADQVYGDQDMHEVVRKHCMDYLMKNADYFSNYVTEDFTTYINRKRKNNCHGNHIEMQAMAEMYNRPVEVYQYSTGTSAVEPINTFHGIHQNEDEPIRVSYHRNIHYNSVVNPNKATIGVGLGLPSFKPGFAEQSLMKNAIKTSEESWIEQQMLEDKKRATDWEATNEAIEEQVARESYLQWLRDQEKQARQVRGPSQPRKASATCSSATAAASSGLEEWTSRSPRQRSSASSPEHPELHAELGMKPPSPGTVLALAKPPSPCAPGTSSQFSAGADRATSPLVSLYPALECRALIQQMSPSAFGLNDWDDDEILASVLAVSQQEYLDSMKKNKVHRDPPPDKS
For B1, which binding [1] is on record?
The binding was “no binding”.

And the binding [2]?
The binding was “binds”.

B2: endogenous OTUD5 (enzyme, UniProt Q96G74 1-571)
chain: B1 chain
With B2 as the binder, how does the binding [3] read?
Its binding is “binds”.
